For part of these data: Weaker means in comparison with the reference protein, sequence or condition of that experiment. Construct, isoform or probe ends are uncertain for at least one entry. At least one verdict rests on a figure or table, not on a statement of the authors.
Legend:
Assay in all cases: EMSA
[1] = molecular target: OCT4 K222A (Homo sapiens) (UniProt Q01860); conditions: monomer, stronger than K222D; LightShift EMSA: 20 ul, 1.5 ug His-OCT4, 0.5 ug His-SOX2 where used, 50 nM biotin-dsDNA, 1 ul poly(dI-dC), 1x loading buffer (salt and pH not stated), 30 min, 25 C; recombinant protein; residues 1-360; protein details: His (pET28a); label: 5'-biotin on sense strand
[2] = system: OCT4 WT + SOX2; conditions: heterodimer, reference for K222D; LightShift EMSA: 20 ul, 1.5 ug His-OCT4, 0.5 ug His-SOX2 where used, 50 nM biotin-dsDNA, 1 ul poly(dI-dC), 1x loading buffer (salt and pH not stated), 30 min, 25 C; recombinant protein; protein details: His (pET28a),His (pET28a); label: 5'-biotin on sense strand
[3] = system: OCT4 K222D + SOX2; conditions: heterodimer, no obvious impact of the mutation; LightShift EMSA: 20 ul, 1.5 ug His-OCT4, 0.5 ug His-SOX2 where used, 50 nM biotin-dsDNA, 1 ul poly(dI-dC), 1x loading buffer (salt and pH not stated), 30 min, 25 C; recombinant protein; protein details: His (pET28a),His (pET28a); label: 5'-biotin on sense strand
[4] = molecular target: OCT4 K222R (Homo sapiens) (UniProt Q01860); conditions: monomer, stronger than K222D; LightShift EMSA: 20 ul, 1.5 ug His-OCT4, 0.5 ug His-SOX2 where used, 50 nM biotin-dsDNA, 1 ul poly(dI-dC), 1x loading buffer (salt and pH not stated), 30 min, 25 C; recombinant protein; residues 1-360; protein details: His (pET28a); label: 5'-biotin on sense strand
[5] = molecular target: OCT4 K222F (Homo sapiens) (UniProt Q01860); conditions: monomer, stronger than K222D; LightShift EMSA: 20 ul, 1.5 ug His-OCT4, 0.5 ug His-SOX2 where used, 50 nM biotin-dsDNA, 1 ul poly(dI-dC), 1x loading buffer (salt and pH not stated), 30 min, 25 C; recombinant protein; residues 1-360; protein details: His (pET28a); label: 5'-biotin on sense strand
[6] = molecular target: OCT4 K222D (Homo sapiens) (UniProt Q01860); conditions: LightShift EMSA: 20 ul, 1.5 ug His-OCT4, 0.5 ug His-SOX2 where used, 50 nM biotin-dsDNA, 1 ul poly(dI-dC), 1x loading buffer (salt and pH not stated), 30 min, 25 C, recombinant protein, residues 1-360, protein details: His (pET28a), label: 5'-biotin on sense strand
[7] = molecular target: OCT4 WT (Homo sapiens) (UniProt Q01860); conditions: LightShift EMSA: 20 ul, 1.5 ug His-OCT4, 0.5 ug His-SOX2 where used, 50 nM biotin-dsDNA, 1 ul poly(dI-dC), 1x loading buffer (salt and pH not stated), 30 min, 25 C, recombinant protein, residues 1-360, protein details: His (pET28a), label: 5'-biotin on sense strand
[8] = monomer, lowest affinity of all variants

Protein sequences, listed by entry. Tags and fused reporters are not part of them.
UniProt Q01860, whole entry K222A: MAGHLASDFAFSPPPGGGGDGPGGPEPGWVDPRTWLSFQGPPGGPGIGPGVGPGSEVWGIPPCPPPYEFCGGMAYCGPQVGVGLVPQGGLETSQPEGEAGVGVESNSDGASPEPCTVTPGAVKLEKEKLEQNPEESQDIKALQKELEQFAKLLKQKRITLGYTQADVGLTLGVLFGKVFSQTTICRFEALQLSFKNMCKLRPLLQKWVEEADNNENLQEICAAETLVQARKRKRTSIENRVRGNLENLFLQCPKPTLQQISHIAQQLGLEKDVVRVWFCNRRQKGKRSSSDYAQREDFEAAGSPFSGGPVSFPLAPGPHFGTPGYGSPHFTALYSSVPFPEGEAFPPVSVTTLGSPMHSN
UniProt Q01860, whole entry K222R: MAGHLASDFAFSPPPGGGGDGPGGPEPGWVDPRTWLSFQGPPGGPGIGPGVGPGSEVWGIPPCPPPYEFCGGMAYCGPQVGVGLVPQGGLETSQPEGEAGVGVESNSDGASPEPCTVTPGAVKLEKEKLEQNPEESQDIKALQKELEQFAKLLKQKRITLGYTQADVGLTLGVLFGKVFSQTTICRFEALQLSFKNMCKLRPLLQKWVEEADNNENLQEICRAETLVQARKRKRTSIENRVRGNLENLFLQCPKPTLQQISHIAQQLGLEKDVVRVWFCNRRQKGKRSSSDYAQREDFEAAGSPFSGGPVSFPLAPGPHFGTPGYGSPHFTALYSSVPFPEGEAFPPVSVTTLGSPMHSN
UniProt Q01860, whole entry K222F: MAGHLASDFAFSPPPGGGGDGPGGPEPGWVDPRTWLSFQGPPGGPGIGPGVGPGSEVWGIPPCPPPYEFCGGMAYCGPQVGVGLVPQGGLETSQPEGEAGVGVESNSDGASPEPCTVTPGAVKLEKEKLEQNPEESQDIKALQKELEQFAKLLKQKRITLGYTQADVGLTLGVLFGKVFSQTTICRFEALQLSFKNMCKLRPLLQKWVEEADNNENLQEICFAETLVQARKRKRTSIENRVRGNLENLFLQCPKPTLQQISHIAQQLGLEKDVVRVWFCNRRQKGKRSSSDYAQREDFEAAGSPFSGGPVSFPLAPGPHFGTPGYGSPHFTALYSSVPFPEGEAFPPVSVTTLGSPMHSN
UniProt Q01860, whole entry K222D: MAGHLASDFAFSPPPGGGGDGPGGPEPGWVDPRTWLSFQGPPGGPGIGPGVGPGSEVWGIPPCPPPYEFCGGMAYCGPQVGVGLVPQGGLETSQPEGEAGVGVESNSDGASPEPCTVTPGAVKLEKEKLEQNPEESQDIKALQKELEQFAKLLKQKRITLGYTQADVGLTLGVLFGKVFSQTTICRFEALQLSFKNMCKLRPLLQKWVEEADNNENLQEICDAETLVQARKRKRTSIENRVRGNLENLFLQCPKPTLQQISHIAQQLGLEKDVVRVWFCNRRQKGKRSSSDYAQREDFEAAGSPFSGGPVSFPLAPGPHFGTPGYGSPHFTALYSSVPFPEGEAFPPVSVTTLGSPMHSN

Row | Sequence | binding result [1] | binding result [2] | binding result [3] | binding result [4] | binding result [5] | binding result [6, 8] | binding result ([7]; monomer, stronger than K222D) | binding result ([6]; homodimer, minimally bound) | binding result ([7]; homodimer, less than K222F) | binding result ([6]; homodimer, no obvious impact of the mutation) | binding result ([7]; homodimer, reference for K222D)
1 | CCGTCTTCTTGGCAGACAGCAGAGAGATGCATGACAAAGGTGCCGTGATGGTTCTGTCC (double strand) [OCT4-SORE probe] | binds | binds | binds | binds | binds | binds more weakly | binds | – | – | – | –
2 | GTCTGGGTTACTCTGCAGCTACTTTTGCATTACAATGGCCTTGGTGAGACTGGTAGACG (double strand) [NANOG-SORE probe] | binds | binds | binds | binds | binds | binds more weakly | binds | – | – | – | –
3 | TATACTAAGCAATTCTTCATTGATTTGAAATGCAAATTTGACTGGGCACCCTGTATCTT (double strand) [PORE probe] | – | – | – | – | – | – | – | binds more weakly | binds | – | –
4 | TGTGAAATACCCTGCCTCATGCATATGCAAATAACCTGAGGTCTTCTGAGATAAATATA (double strand) [MORE probe] | – | – | – | – | – | – | – | – | – | binds | binds

Source: PMC8119428
